Series [1] concerns GST-BACH2_331-839 + MBP-MafK. Nature of the series: competition with a labelled probe. As to conditions: unlabeled competitor against TBK1#2_WT probe, did not compete; 32P-labeled ds probes, 30 min incubation, 4% polyacrylamide gel; pH and temperature not stated; recombinant protein; protein details: N-terminal GST,MBP; label: none (competitor).
Series [2] has as its system GST-BACH2_331-839 + MBP-MafK. Nature of the series: EMSA. As to conditions: 32P-labeled ds probes, 30 min incubation, 4% polyacrylamide gel, pH and temperature not stated, recombinant protein, protein details: N-terminal GST,MBP, label: 32P 5' end (PNK).

The exact form of at least one protein or probe is not confirmed. For part of these data: A negative result means that nothing was seen under these conditions. For part of these data: Weaker means in comparison with the reference protein, sequence or condition of that experiment.

From article PMC11699347, “Heme regulates protein interactions and phosphorylation of BACH2 intrinsically disordered region in humoral response” (iScience, 2024) come the findings set out here.

In the case of “GACTAAAAGAGATAAATCGGGACCCAACG (double strand) [TBK1#2_Mut]”, the binding result in series [1] is “no binding”.
With “GACTAAAACATGACTCAGCACACCCAACG (double strand) [TBK1#2_WT]”, the binding result in series [2] (supershift/block with anti-BACH2, self-competition) was “binds”.
Regarding “TAGCCTGTGCTGATTCAGCAAGCCGT (double strand) [TBK1#1_WT]”, in series [2] (substantially weaker than site #2), the binding result is “binds more weakly”.
